No constants are given. Whether binding was seen depends on the method and setting. Binding seen in cells or lysates may run through a third protein. Some binding calls cover weakened binding; strength is not graded here.

Chains of the proteins cited; added tags and fusions are not shown. Residues count along the entry.
UniProt P35579: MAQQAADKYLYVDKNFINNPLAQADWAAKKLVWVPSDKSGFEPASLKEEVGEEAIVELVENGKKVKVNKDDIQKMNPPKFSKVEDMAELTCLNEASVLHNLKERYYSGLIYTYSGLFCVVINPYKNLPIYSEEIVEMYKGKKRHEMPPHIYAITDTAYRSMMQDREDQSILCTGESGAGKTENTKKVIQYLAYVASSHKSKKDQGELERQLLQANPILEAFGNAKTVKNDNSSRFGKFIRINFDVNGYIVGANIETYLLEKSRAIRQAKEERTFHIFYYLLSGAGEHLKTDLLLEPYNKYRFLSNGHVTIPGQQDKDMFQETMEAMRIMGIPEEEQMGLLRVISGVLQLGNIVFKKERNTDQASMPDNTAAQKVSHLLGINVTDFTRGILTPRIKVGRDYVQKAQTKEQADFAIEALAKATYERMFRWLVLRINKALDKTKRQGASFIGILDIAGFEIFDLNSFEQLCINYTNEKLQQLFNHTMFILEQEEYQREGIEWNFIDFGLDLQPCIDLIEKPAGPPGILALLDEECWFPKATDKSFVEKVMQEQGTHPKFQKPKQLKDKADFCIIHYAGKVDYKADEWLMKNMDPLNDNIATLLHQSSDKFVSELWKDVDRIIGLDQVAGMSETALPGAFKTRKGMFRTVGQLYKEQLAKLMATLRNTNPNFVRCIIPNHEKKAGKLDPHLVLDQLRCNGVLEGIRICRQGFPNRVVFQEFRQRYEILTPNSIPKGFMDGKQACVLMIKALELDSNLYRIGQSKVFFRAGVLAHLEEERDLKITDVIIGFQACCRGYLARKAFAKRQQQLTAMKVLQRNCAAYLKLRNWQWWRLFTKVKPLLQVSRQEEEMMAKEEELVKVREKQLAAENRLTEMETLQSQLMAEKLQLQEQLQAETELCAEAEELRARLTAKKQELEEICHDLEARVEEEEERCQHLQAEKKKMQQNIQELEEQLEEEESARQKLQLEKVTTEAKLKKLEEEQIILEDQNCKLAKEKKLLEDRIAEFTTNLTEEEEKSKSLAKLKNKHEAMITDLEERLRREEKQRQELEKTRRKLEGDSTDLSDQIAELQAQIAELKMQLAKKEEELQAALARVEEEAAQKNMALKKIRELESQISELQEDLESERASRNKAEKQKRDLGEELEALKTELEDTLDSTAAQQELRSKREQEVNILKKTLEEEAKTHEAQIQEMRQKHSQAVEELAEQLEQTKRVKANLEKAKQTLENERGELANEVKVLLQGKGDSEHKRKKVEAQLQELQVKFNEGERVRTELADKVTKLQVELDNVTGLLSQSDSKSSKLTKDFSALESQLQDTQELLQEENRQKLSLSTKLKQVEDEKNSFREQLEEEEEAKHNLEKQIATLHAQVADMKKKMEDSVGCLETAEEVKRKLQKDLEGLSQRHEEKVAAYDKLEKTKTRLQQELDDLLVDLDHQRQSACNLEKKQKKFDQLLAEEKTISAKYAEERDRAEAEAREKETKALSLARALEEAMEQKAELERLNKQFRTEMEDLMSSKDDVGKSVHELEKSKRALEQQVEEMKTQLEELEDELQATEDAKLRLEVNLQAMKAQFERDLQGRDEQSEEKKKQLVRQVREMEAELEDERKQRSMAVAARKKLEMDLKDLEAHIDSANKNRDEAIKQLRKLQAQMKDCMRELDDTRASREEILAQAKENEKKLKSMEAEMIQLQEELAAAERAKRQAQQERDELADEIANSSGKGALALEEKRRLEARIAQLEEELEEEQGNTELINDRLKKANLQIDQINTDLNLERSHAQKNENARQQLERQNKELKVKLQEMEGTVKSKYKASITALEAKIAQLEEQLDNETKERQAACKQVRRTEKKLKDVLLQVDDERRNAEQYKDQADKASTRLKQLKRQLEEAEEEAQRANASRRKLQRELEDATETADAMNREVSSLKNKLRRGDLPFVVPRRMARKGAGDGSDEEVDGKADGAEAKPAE
UniProt P11021, residues 19-654: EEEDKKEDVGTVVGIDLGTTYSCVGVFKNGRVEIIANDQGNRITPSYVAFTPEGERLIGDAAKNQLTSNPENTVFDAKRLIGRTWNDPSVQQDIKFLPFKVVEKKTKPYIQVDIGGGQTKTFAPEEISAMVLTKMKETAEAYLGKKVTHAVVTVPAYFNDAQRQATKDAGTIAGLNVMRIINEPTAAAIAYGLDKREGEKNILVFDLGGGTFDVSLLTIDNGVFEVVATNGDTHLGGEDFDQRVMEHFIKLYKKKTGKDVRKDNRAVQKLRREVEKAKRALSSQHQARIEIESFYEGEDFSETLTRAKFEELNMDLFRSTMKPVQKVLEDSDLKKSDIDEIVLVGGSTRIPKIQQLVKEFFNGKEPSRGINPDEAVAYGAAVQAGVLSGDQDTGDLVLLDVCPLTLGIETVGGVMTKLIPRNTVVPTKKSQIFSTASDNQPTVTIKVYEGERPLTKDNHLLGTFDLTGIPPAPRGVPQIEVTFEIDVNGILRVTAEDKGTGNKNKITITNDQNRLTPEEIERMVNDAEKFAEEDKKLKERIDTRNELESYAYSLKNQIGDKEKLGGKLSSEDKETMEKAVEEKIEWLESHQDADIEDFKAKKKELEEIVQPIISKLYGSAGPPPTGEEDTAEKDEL
UniProt P08670: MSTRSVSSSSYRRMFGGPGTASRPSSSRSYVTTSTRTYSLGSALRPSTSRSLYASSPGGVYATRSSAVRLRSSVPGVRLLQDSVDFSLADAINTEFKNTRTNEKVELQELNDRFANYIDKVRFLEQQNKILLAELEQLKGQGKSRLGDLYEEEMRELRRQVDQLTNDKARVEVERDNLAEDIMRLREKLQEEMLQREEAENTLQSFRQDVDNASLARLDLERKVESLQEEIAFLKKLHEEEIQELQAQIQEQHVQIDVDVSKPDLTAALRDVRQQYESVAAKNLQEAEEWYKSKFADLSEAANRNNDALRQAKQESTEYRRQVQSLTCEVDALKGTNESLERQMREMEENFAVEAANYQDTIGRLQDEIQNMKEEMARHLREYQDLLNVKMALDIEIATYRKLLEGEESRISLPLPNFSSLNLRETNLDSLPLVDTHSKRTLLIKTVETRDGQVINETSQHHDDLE

Assay [1] has as its target T1, Protein S100-A16 (human (endogenous in HK-2)) (UniProt Q96FQ6).
T1 sequence: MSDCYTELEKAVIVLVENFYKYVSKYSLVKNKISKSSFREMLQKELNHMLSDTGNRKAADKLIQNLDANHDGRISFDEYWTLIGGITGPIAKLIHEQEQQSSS
Nature of the assay: co-IP; HK-2 cells; Supplemental Fig. 2; cells and precipitating antibody not given.

For assay [2], the target named is T2, Protein S100-A16, overexpressed from lentivirus (human) (UniProt Q96FQ6).
T2 sequence: T1 sequence
Nature of the assay: co-IP; lysates of wild type or S100A16-overexpressing HK-2 cells in NP40 lysis buffer (10 mM Tris-HCl pH 7.4, 10 mM NaCl); 0.5 mg protein with anti-S100A16 antibody overnight at 4 °C, protein A beads; blot with anti-Myh9; also after pre-transfection of the cells with anti-Myh9 antibody (Fig. 6a, precipitating antibody not told there).

Assay [3] addresses T1, Protein S100-A16 (human (endogenous in HK-2)). The assay is described as above.
Assay [4] deals with Myosin-9 (human (endogenous in HK-2)) (UniProt P35579). Nature of the assay: co-IP; lysates of lenti-scrambled or lenti-S100A16 HK-2 cells in NP40 lysis buffer; IP with anti-Myh9 antibody, protein A beads; blot with anti-S100A16.

Consider “78 kDa glucose-regulated protein (from UniProt P11021 19-654)”, for which, in assay [1], the binding entry is on record as “binds”. With Myosin-9 (from UniProt P35579 1-1960), the binding result in assay [2] and in assay [3] was “binds” throughout. As for Vimentin (from UniProt P08670 1-466), the binding result in assay [1] is listed as “binds”.

B1: Protein S100-A16 (protein, UniProt Q96FQ6 1-103)
chain: T1 sequence
On to B1, for which the binding result in assay [4] is reported as “binds”.

B2: Protein S100-A16, overexpressed from lentivirus (protein, UniProt Q96FQ6 1-103)
chain: T1 sequence
For B2, the binding entry in assay [4] is listed as “binds”.

The values are drawn from paper PMC7039973.
